The values below come from US20120004157A1, “HYDROXYPROLINE COMPOSITIONS AND USES THEREOF” (Bergen Teknologioverforing AS, priority 2007, published 2012).

This data set deals with Atlantic salmon (Salmo salar). Nature of the data set: 88 days growth experiment, growth and feed performance. Particulars: 88 days feeding, Diets 2-5 = 0.7, 1.4, 2.8, 5.6 gkg−1 added hydroxyproline, mean ± SD. It counts as in vivo. The source says:
The diets used were composed such that they are equal in protein, lipid and energy, and designed to vary only in level of Hydroxyproline. The small amounts of Hydroxyproline added (L-4-Hydroksyproline, >99.0% pure, Fluka BioChemika. Sigma-Aldrich Chemie GmbH) were exchanged with fish meal, and the diets were otherwise adjusted with the content of raw wheat to secure equal chemical composition. Five different levels of Hydroxyproline were used in a regression design with two replicates for each level, except the diet without Hydroxyproline addition that was run in triplicate tanks. The levels used of hydroxyproline were 0, 0.7 gkg^−1, 1.4 gkg^−1, 2.8 gkg^−1 and 5.6 gkg^−1. As a negative control, Proline (L-Proline, (Hydroxy-L-Proline Free) Sigma grade, Sigma Chemical Company) was added to a level of 2.8 gkg^−1.
Atlantic salmon (Salmo salar) was obtained from Salmobreed May 2006. The fish was prevaccinated with Trippel Forte and was acclimated for 56 days before the trial started. The fish was given EWOS Opal Boost 50 3A, 3 mm pellets during this period. The fish was randomly distributed among 14 fiberglass tanks (1.5×1.5×1 m^3) with 80 fish per tank. Diet 1 and Diet 6 were run in triplicate tanks. Diet 2, Diet 3, Diet 4 and Diet 5 was run in duplicate tanks. Data are given also for a fish meal diet with no plant protein included. This diet was run simultaneously with fish of the same size, origin and treatment. This diet (Diet 7) was run in 2 m×2 m×1 m tanks in triplicate in a parallel experiment. […] Feed intake was measured daily as the difference between total feed given and total uneaten feed collected. Feed intake for the total experimental period was measured as the sum of the daily feed intakes, divided by feeding days and average fish weight during the experimental period; (start weight+final weight)/2. […]
The six experimental diets were randomly assigned to the 14 tanks, with 3 replicate tanks for Diet 1 and Diet 6 and to duplicate tanks for the other experimental diets. Initial fish weights and lengths were recorded. […] Final weights were determined for each fish in all tanks. […]

Molecules are shown by their SMILES.

As for `O=C(O)[C@@H]1C[C@@H](O)CN1` [Hydroxyproline, L-4-Hydroksyproline], the Condition factor entry is reported as “no difference or significant regressions”. The DOP entry (dressing out percentage) is on record as “no difference or significant regressions”. Moreover, the HSI result (hepatosomatic index) is given as “no difference or significant regressions”.
